Results from one PubChem assay

Source: PubChem BioAssay AID504749 (NCATS, 2011).

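A panel of P. falciparum strains inside erythrocytes is exposed to compounds for three days, then a DNA-binding dye reports the amount of parasite DNA.
Each compound was titrated across a series from about 0.000037 to 29 µM.
The number is the fitted AC50, the concentration giving a half-maximal change in signal; a lower value means higher potency, whether the curve shows a decrease or an increase.
Calls follow the curve class and fit quality: every row here is inconclusive, covering signal-raising curves and weak, poorly fitted, partial or highest-dose-only inhibition curves.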

Values are in µM.
All entries here are filed as inconclusive.
Only part of the assay is shown, chiefly results filed as inconclusive.
A potency from a partial, single-point or poor curve is only a rough figure.
The first word of each remark tells which way the curve ran; it can be opposite to the aim of the assay.

Compound: O=C(N/N=C/c1ccc([N+](=O)[O-])o1)c1cc([N+](=O)[O-])cc([N+](=O)[O-])c1O
tested on / at: CP201
fitted potency (µM): 0.0107
remark: activator

Compound: O=C(N/N=C/c1ccc([N+](=O)[O-])o1)c1cc([N+](=O)[O-])cc([N+](=O)[O-])c1O
tested on / at: CP260
fitted potency (µM): 0.0035
remark: inhibitor, full curve, poor fit

Compound: O=C(N/N=C/c1ccc([N+](=O)[O-])o1)c1cc([N+](=O)[O-])cc([N+](=O)[O-])c1O
tested on / at: CP269
fitted potency (µM): 0.0239
remark: activator

Compound: O=C(N/N=C/c1ccc([N+](=O)[O-])o1)c1cc([N+](=O)[O-])cc([N+](=O)[O-])c1O
tested on / at: CP237
fitted potency (µM): 0.002
remark: inhibitor, full curve, poor fit

Compound: O=C(N/N=C/c1ccc([N+](=O)[O-])o1)c1cc([N+](=O)[O-])cc([N+](=O)[O-])c1O
tested on / at: ATS95
fitted potency (µM): 0.0447
remark: inhibitor, full curve, poor fit

Compound: O=C(N/N=C/c1ccc([N+](=O)[O-])o1)c1cc([N+](=O)[O-])cc([N+](=O)[O-])c1O
tested on / at: CP192
fitted potency (µM): 0.0478
remark: activator

Compound: O=C(N/N=C/c1ccc([N+](=O)[O-])o1)c1cc([N+](=O)[O-])cc([N+](=O)[O-])c1O
tested on / at: ECU
fitted potency (µM): 0.1
remark: inhibitor, full curve, poor fit

Compound: O=C(N/N=C/c1ccc([N+](=O)[O-])o1)c1cc([N+](=O)[O-])cc([N+](=O)[O-])c1O
tested on / at: CP305
fitted potency (µM): 0.0043
remark: activator

Compound: O=C(N/N=C/c1ccc([N+](=O)[O-])o1)c1cc([N+](=O)[O-])cc([N+](=O)[O-])c1O
tested on / at: CP325
fitted potency (µM): 0.003
remark: activator

Compound: O=C(N/N=C/c1ccc([N+](=O)[O-])o1)c1cc([N+](=O)[O-])cc([N+](=O)[O-])c1O
tested on / at: CP286
fitted potency (µM): 0.0022
remark: inhibitor, full curve, poor fit

Compound: O=C(N/N=C/c1ccc([N+](=O)[O-])o1)c1cc([N+](=O)[O-])cc([N+](=O)[O-])c1O
tested on / at: DIV17
fitted potency (µM): 0.0107
remark: activator

Compound: O=C(N/N=C/c1ccc([N+](=O)[O-])o1)c1cc([N+](=O)[O-])cc([N+](=O)[O-])c1O
tested on / at: PC26
fitted potency (µM): 33.81
remark: activator

Compound: O=C(N/N=C/c1ccc([N+](=O)[O-])o1)c1cc([N+](=O)[O-])cc([N+](=O)[O-])c1O
tested on / at: ICS
fitted potency (µM): 7.08
remark: inhibitor, partial curve, poor fit

Compound: O=C(N/N=C/c1ccc([N+](=O)[O-])o1)c1cc([N+](=O)[O-])cc([N+](=O)[O-])c1O
tested on / at: CP211
fitted potency (µM): 0.0478
remark: activator

Compound: O=C(N/N=C/c1ccc([N+](=O)[O-])o1)c1cc([N+](=O)[O-])cc([N+](=O)[O-])c1O
tested on / at: CP315
fitted potency (µM): 0.3793
remark: activator

Compound: O=C(N/N=C/c1ccc([N+](=O)[O-])o1)c1cc([N+](=O)[O-])cc([N+](=O)[O-])c1O
tested on / at: CP262
fitted potency (µM): 0.0019
remark: activator

Compound: CN1CCc2c(c3ccccc3n2Cc2ccccc2)C1
tested on / at: CP194
fitted potency (µM): 6.424
remark: inhibitor, single point

Compound: CN1CCc2c(c3ccccc3n2Cc2ccccc2)C1
tested on / at: PC26
fitted potency (µM): 4.548
remark: inhibitor, single point

Compound: CN1CCc2c(c3ccccc3n2Cc2ccccc2)C1
tested on / at: CP203
fitted potency (µM): 5.726
remark: inhibitor, partial curve

Compound: CN1CCc2c(c3ccccc3n2Cc2ccccc2)C1
tested on / at: CP215
fitted potency (µM): 7.208
remark: inhibitor, partial curve, poor fit

Compound: CN1CCc2c(c3ccccc3n2Cc2ccccc2)C1
tested on / at: Dd2
fitted potency (µM): 3.162
remark: inhibitor, partial curve

Compound: CN1CCc2c(c3ccccc3n2Cc2ccccc2)C1
tested on / at: CP262
fitted potency (µM): 5.726
remark: inhibitor, partial curve, poor fit

The first 2 entries again:

Compound,tested on / at,fitted potency (µM),remark
O=C(N/N=C/c1ccc([N+](=O)[O-])o1)c1cc([N+](=O)[O-])cc([N+](=O)[O-])c1O,CP201,0.0107,activator
O=C(N/N=C/c1ccc([N+](=O)[O-])o1)c1cc([N+](=O)[O-])cc([N+](=O)[O-])c1O,CP260,0.0035,"inhibitor, full curve, poor fit"